This note sets out measurements from patent US4578245A, “Multilayer analytical element” (Fuji Photo Film Co., Ltd., priority 1982, dated 1986).

The series in a line: Relative Sensitivity of Analytical Slide (Multilayer Analytical Element). To be noted: glucose 100 mg/dl human whole blood vs distilled water; 37° C., 6 min; 500 nm; (C1) = 1.0.

Take `Cc1c(N)c(=O)n(-c2cccc(Cl)c2)n1C` [(1)]: the “Relative Sensitivity (Slide)” value turned out to be 1.4.
With `Cn1c(-c2ccccc2)c(N)c(=O)n1-c1ccccc1` [(18)] the figure was 1.9.
With `Cn1c(-c2ccccc2)c(N)c(=O)n1C` [(C2), reference compound] the figure was 1.0; with `Cc1c(N)c(=O)n(-c2c(Cl)cc(Cl)cc2Cl)n1C` [Compound (6)], 1.9.
With `Cc1c(N)c(=O)n(-c2ccccc2)n1C` [Compound (C1), 4-amino-2,3-dimethyl-1-phenyl-3-pyrazolin-5-one, reference compound] the figure was 1.0.
